Assay results taken from US8354430B2, “Monohydrochloride salt of 1-[3-[3-(4-chlorophenyl) propoxy]propyl]-piperidine” (priority 2005, dated 2013).

System: mice
Assay: Scopolamine-induced learning deficit, two-trial object recognition
Assay type: in vivo, mouse
Method: Lett., 1994, 170, 117-120; Bartolini et al., Biochem. Nehav., 1996, 53, 277-283]. Methods: Mice were allowed to explore a box for 30 min in the presence of two objects. The day after, mice were submitted to two trials spaced by an interval of 60 min. During the first trial (T1), mice were placed in the box containing the two identical objects and the time required by each animal to complete 20 sec of object exploration was determined. Exploration was considered to be directing the nose at a distance closer than 2 cm to the object and/or touching the object. For the second trial (T2), one of the objects presented in the first trial was replaced by and unknown novel object. Mice were placed in the box for 5 min and exploration of each object together with motor activity was determined. The following parameters were measured.

Cl.Clc1ccc(CCCOCCCN2CCCCC2)cc1 [1-[3-[3-(4-chlorophenyl)propoxy]propyl]-piperidine monohydrochloride]
time to reach the learning criteria on the first trial (5 mg/kg): did not modify
increase in motor activity of scopolamine-treated mice (5 and 15 mg/kg i.p.): not significantly modified
time to reach the learning criteria on the first trial (higher dose (15 mg/kg)): significantly increased
